Source: paper PMC8864165 (Frontiers in Chemistry, 2022)

Assay: peptide made by a vendor (peptide synthesis; Rink amide resin)
Settings: whole synthesis, RP-HPLC recording the absorbance at 214 nm, acetate

Chex-RPDKPRPYLPRPRPPRPVR-NH2
final HPLC purity: 97.3%
